Data taken from PubChem BioAssay AID324 (DTP/NCI, 2004).
The list does not hold the whole screen: it is rich in T/C values a quarter to a half above the control, in often repeated tests (any T/C) and in doses without a T/C. Further doses and runs are listed elsewhere. T/C is the treated group as % of the vehicle group. Some entries give survivors of the animals treated and no T/C: the source holds a T/C of zero for them, seemingly a mark for toxic or unscored doses. Some doses without a T/C left all or most animals alive at the check, yet need not have been tolerated: survival well below the control is almost never listed, so the zero probably covers shortened survival too. Counts of survivors are from the toxicity check (mostly the fifth day) where no day follows; animals may have died later. Schedule codes are those of the source, taken here to give the interval after Q, in days (D) or hours (H), and the number of doses after X. Some doses were run more than once; the values are given in rising order. For survival time, the PubChem record calls one and a half times the control and up active, and a quarter to a half above the control has no call in these data; cut-offs in other NCI protocols can differ. Some T/C values are followed by the survivors on the day toxicity was checked, most often the fifth; without a count, all were alive then.

System: CD2F1 mice, AMSA-resistant P388 leukemia ip, median survival T/C
Assay: NCI In Vivo Anticancer Drug Screen. Data for tumor model P388 Leukemia resistant to AMSA; NSC 249992 (intraperitoneal) in CD2F1 (CDF1) mice
Details: T/C endpoint: median survival time, higher T/C = longer survival
Protocol: The antitumor activity of compounds was measured in mice bearing transplantable tumors. Survival or tumor size were measured and the results are expressed as the measurement made in the treated group (T) divided by the measurement made in the vehicle treated control group (C). The tumor model used in this assay is P388 Leukemia resistant to AMSA; NSC 249992 (intraperitoneal) in CD2F1 (CDF1) mice

[1] = dose: 0.36 mg/kg/injection, schedule: Q04DX003 (ip), vehicle: saline + alcohol
[2] = dose: 0.6 mg/kg/injection, schedule: Q04DX003 (ip), vehicle: saline + alcohol

## COC(=O)C[C@](O)(CCCC(C)(C)O)C(=O)O[C@@H]1C(OC)=C[C@]23CCCN2CCc2cc4c(cc2[C@H]13)OCO4
dose: 0.65 mg/kg/injection, schedule: Q04DX003 (ip), vehicle: saline + alcohol
  T/C: 133 % of control
dose: 1.08 mg/kg/injection, schedule: Q04DX003 (ip), vehicle: saline + alcohol
  T/C: 142 % of control
dose: 5.0 mg/kg/injection, schedule: Q04DX003 (ip), vehicle: saline + alcohol
  survivor count: 5 of 8

## CCCCCCCC(=O)OCC(=O)[C@]1(O)Cc2c(O)c3c(c(O)c2[C@@H](OC2CC(N)C(O)C(C)O2)C1)C(=O)c1c(OC)cccc1C3=O (some centres not stated)
dose: 1.73 mg/kg/injection, schedule: Q04DX003 (ip), vehicle: water
  T/C: 126 % of control
dose: 2.88 mg/kg/injection, schedule: Q04DX003 (ip), vehicle: water
  T/C: 130 % of control
dose: 4.8 mg/kg/injection, schedule: Q04DX003 (ip), vehicle: water
  T/C: 135 % of control
dose: 8.0 mg/kg/injection, schedule: Q04DX003 (ip), vehicle: water
  T/C: 130 % of control

## COc1c(O)c2c(c3cc(C(=O)N4CCc5c4c(O)c(OC)c4[nH]c(C(=O)N6CC7CC78C6=CC(=O)c6[nH]cc(C)c68)cc54)[nH]c13)CCN2C(N)=O (configuration not stated)
dose: 0.11 mg/kg/injection, schedule: Q01DX001 (ip), vehicle: DMSO
  T/C: 133 % of control
dose: 0.3 mg/kg/injection, schedule: Q01DX001 (ip), vehicle: DMSO
  survivor count: 8 of 8

## COc1cc(NS(C)(=O)=O)ccc1Nc1c2ccccc2nc2ccccc12
dose: 0.52 mg/kg/injection, schedule: Q01DX009 (ip), vehicle: other
  survivor count: 7 of 8
dose: 0.86 mg/kg/injection, schedule: Q01DX009 (ip), vehicle: other
  survivor count: 8 of 8
dose: 1.44 mg/kg/injection, schedule: Q01DX009 (ip), vehicle: other
  survivor count: 8 of 8
dose: 2.4 mg/kg/injection, schedule: Q01DX009 (ip), vehicle: other
  survivor count: 8 of 8
dose: 4.0 mg/kg/injection, schedule: Q01DX009 (ip), vehicle: other
  survivor count: 8 of 8
dose: 6.67 mg/kg/injection, schedule: Q01DX009 (ip), vehicle: other
  survivor count: 8 of 8
dose: 12.0 mg/kg/injection, schedule: Q04DX003 (ip), vehicle: clinical formulation
  T/C: 131 % of control
dose: 12.0 mg/kg/injection, schedule: Q04DX003 (ip), vehicle: saline with Tween-80
  T/C: 126 % of control
dose: 12.0 mg/kg/injection, schedule: Q04DX003 (ip), vehicle: water
  survivor count: 6 of 8
dose: 15.0 mg/kg/injection, schedule: Q04DX003 (ip), vehicle: saline with Tween-80
  T/C: 132 % of control
dose: 20.0 mg/kg/injection, schedule: Q04DX003 (ip), vehicle: clinical formulation
  survivor count: 5 of 8
dose: 20.0 mg/kg/injection, schedule: Q04DX003 (ip), vehicle: other
  survivor count: 4 of 8 and 8 of 8
dose: 20.0 mg/kg/injection, schedule: Q04DX003 (ip), vehicle: water
  survivor count: 5 of 8 and 7 of 8
dose: 40.0 mg/kg/injection, schedule: Q01DX001 (ip), vehicle: saline with Tween-80
  T/C: 142 % of control
dose: 60.0 mg/kg/injection, schedule: Q01DX001 (ip), vehicle: saline with Tween-80
  T/C: 149 % of control

## CO[C@H]1Nc2c(ccc(C)c2O)C(=O)N2C=C(/C=C/C(N)=O)C[C@@H]12
dose: 0.13 mg/kg/injection, schedule: Q04DX003 (ip), vehicle: saline + alcohol
  T/C: 128 % of control
dose: 0.22 mg/kg/injection, schedule: Q04DX003 (ip), vehicle: saline + alcohol, evaluated on day 30
  T/C: 126 % of control [7 of 8 alive]
dose: 0.22 mg/kg/injection, schedule: Q04DX003 (ip), vehicle: saline + alcohol, evaluated on day 45
  T/C: 129 % of control
[1]
  T/C: 133 % of control
  survivor count: 8 of 8
[2]
  T/C: 149 % of control
  survivor count: 1 of 8
dose: 1.0 mg/kg/injection, schedule: Q04DX003 (ip), vehicle: saline + alcohol
  survivor count: 0 of 8
